Experimental data from publication PMC10830559.
No constants are given. Whether binding was seen depends on the method and setting. In cells and extracts the contact can be indirect. Where a sequence is shown, tags or fusion partners need not be part of it.

Chains of the proteins cited; added tags and fusions are not shown.
UniProt Q8IVF7: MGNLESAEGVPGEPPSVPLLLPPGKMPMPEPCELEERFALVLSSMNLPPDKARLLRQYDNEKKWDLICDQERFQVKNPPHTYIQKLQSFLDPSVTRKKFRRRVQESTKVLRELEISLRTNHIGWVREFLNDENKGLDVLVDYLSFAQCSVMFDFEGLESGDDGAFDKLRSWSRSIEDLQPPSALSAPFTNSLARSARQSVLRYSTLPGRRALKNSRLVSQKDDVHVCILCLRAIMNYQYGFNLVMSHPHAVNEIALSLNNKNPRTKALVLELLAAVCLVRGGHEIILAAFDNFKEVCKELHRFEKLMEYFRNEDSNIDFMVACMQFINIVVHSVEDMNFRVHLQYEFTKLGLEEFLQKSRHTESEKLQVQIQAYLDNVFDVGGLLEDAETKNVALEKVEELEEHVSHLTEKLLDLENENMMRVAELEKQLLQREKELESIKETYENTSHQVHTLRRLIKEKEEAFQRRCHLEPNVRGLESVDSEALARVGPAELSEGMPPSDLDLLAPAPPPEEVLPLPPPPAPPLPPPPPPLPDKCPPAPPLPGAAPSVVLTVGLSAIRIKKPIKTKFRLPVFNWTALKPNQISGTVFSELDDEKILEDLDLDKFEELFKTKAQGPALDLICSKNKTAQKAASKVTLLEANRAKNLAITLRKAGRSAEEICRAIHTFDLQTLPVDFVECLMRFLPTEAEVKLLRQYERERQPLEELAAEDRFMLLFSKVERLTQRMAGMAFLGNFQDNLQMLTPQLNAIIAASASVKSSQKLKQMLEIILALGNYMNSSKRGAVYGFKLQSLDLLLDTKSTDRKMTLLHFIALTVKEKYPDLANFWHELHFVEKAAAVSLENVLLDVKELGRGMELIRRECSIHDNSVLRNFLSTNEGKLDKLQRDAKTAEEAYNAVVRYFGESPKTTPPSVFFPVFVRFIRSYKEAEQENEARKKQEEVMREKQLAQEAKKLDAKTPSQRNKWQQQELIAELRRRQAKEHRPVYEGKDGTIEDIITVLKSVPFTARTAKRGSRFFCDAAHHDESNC

Target: T1, HA-GFP BCAR3 K334A (UniProt O75815)
T1 sequence: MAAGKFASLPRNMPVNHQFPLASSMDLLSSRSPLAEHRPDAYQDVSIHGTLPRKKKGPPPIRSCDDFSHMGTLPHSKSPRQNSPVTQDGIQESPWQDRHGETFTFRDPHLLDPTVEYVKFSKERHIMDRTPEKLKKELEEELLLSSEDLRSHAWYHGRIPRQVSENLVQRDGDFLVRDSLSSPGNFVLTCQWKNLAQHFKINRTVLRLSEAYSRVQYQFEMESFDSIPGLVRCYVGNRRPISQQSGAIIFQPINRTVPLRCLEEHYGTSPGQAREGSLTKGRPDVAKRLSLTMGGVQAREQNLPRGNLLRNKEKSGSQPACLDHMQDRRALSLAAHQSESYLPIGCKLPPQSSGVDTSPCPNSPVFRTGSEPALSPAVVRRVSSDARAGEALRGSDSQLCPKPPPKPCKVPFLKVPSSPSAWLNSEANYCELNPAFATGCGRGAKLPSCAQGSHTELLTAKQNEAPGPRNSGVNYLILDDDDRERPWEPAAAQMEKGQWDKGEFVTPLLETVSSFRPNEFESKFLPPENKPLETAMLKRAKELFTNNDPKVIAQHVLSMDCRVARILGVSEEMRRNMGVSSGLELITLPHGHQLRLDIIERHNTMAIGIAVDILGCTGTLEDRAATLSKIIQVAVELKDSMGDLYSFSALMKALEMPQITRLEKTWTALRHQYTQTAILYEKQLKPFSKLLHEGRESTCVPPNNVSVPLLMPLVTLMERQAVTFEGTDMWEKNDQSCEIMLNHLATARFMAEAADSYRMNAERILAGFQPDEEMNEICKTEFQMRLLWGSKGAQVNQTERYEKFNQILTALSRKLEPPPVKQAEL
Experiment: proximity ligation; Duolink PLA with HA (mouse) and FLAG (rabbit) antibodies on methanol-fixed engineered MDA-MB-231 cells; confocal spinning disk, dots per cell

binding: no binding
Substance: Flag-FMNL3 (from UniProt Q8IVF7 1-1028)
